# Test results reported in PubChem BioAssay AID540256 (National Center for Advancing Translational Sciences (NCATS), 2011).
# Out of some 300,000 compounds screened, about 3,700 (1.2%) were called active. This list was built around the results that the source calls inconclusive (neither active nor inactive); the mix of calls is not that of the screen. Calls follow the shape of the full dose curve; tested in HEK293 cells. Potencies of inconclusive entries are doubtful fits and often do not repeat.
# Test: qHTS for Inhibitors of binding or entry into cells for Lassa Virus; also: nearly all actives have a fitted effect of over 50% in size
# Conditions: Lassa virus pseudotype entry inhibition, cell reporter; series mostly up to 37.9 µM
# Potency is read from the fitted curve at half-maximal effect.
row,SMILES,Potency
1,CCOc1ccc(CN2CCN(Cc3[nH]c4ccc(OC)cc4c3C)CC2CCO)cc1 (centres undefined),"inconclusive: 22.4 µM [inhibitor, single point]"
2,O=C(N/N=C/c1cccnc1)c1ccc(NC(=O)c2cccc(Cl)c2)cc1,inactive
3,OC(CNC1CCCCC1)C(F)(F)F (centres undefined),inactive
4,C=CCn1c(O)c(N=NC(=O)OCC)c2ccccc21,inactive
5,CN(C)c1ncnc2c1ncn2C1OC(CO)C(O)C1O (centres undefined),"inconclusive: 8.91 µM [inhibitor, partial curve, poor fit]"
6,CN(C)S(=O)(=O)N(CC(=O)NCCSCc1c(F)cccc1Cl)c1ccccc1,inactive
7,CC1(C)SC2c3ccccc3C(=O)N2[C@@H]1C(=O)NC1CCCC1 (some centres undefined),"inconclusive: 20 µM [activator, partial curve, poor fit]"
8,O=c1sc(Nc2ccccc2)nc2ccsc12,"inconclusive: 13 µM [activator, partial curve, poor fit]"
9,CCCCN(CCCNC(=O)c1cc(Nc2cccc(SC)c2)nc2ccccc12)Cc1ccccc1,"inconclusive: 35.5 µM [inhibitor, single point]"
10,CC(=O)c1ccc(NC(=O)c2cc(C)nn2-c2ccccc2)cc1,inactive
11,COc1ccc(C(=O)NNC(=O)c2ccc(C)cc2)cc1S(=O)(=O)N1CCCC1,"inconclusive: 1.26 µM [inhibitor, single point]"
12,O=C(Cn1nc(-c2ccccc2)c2ccccc2c1=O)Nc1ccccn1,"inconclusive: 35.5 µM [inhibitor, single point]"
13,CCc1nnc(NC(=O)c2cccc(S(=O)(=O)N3CCCC3)c2)s1,"inconclusive: 1.26 µM [inhibitor, single point]"
14,COc1ccccc1NC(=O)C1=C(C)Nc2nc(-c3cccs3)nn2C1c1cccc(O)c1 (centres undefined),"inconclusive: 15.8 µM [inhibitor, single point]"
15,O=c1[nH]c(=O)n(CCc2ccc(F)cc2)c(O)c1C=NCc1ccc2c(c1)OCO2,"inconclusive: 5.8 µM [inhibitor, full curve, poor fit]"
16,CCN(CC)S(=O)(=O)c1cccc(C(=O)Nc2ccccc2C(=O)Nc2ccc(Cl)cc2)c1,"inconclusive: 35.5 µM [inhibitor, single point]"
17,Cc1ccc2c(c1)N(C(=O)CSc1nncn1C)C(C)(C)c1ssc(=S)c1-2,"inconclusive: 14.1 µM [inhibitor, single point]"
18,CCN(CC)S(=O)(=O)c1cc([N+](=O)[O-])ccc1NNC(=O)Nc1ccc(F)cc1,"inconclusive: 29.1 µM [inhibitor, single point]"
19,CCOc1ccc(NC(=O)c2cccn(Cc3cccc(Cl)c3)c2=O)cc1,"inconclusive: 14.1 µM [inhibitor, single point]"
20,O=S(=O)(c1cccc(Cl)c1)c1nnn2c1nc(NCc1ccc3c(c1)OCO3)c1sccc12,inactive
21,O=C(O)/C(=C\c1ccco1)NC(=O)c1cccc2ccccc12,"inconclusive: 0.73 µM [activator, full curve, poor fit]"
22,O=C(c1cc(=O)[nH]c2ccccc12)N1CCc2ccccc2C1,inactive
23,Cc1ccc(S(=O)(=O)NCC(c2ccco2)N2CCOCC2)cc1 (centres undefined),inactive

row,SMILES,Potency
1,Cc1cc(C)n2nc(C(=O)N/N=C/c3cccs3)nc2n1,inactive
2,CCCOc1ccc(C(=O)NCC(C)(C)N2CCOCC2)cc1,inactive
3,NC(=O)C1(N2CCCCC2)CCN(C(=O)c2ccc(C#Cc3ccccc3)o2)CC1,"inconclusive: 25.1 µM [inhibitor, single point]"
4,CSc1ccc(CN(C)CC(=O)NC(=O)NCCC2=CCCCC2)cc1,"inconclusive: 35.5 µM [inhibitor, single point]"
5,COc1cc(N2CCN(C(C)C)CC2)ccc1Nc1nc(Nc2ccc(F)cc2C(=O)NCC(O)CO)c2cc[nH]c2n1 (centres undefined),"inconclusive: 15.8 µM [inhibitor, partial curve, poor fit]"
6,Nc1ncncc1-c1ccccc1Cl,inactive
7,CSc1nc2nc3c(cc2c(=O)n1-c1ccccc1C)CCCC3,"inconclusive: 35.5 µM [inhibitor, single point]"
8,CCCOc1ccc(C2c3c(-c4ccccc4O)n[nH]c3C(=O)N2CCc2ccccc2)cc1OCC (centres undefined),"inconclusive: 1.26 µM [inhibitor, full curve, poor fit]"
9,O=C(CCNS(=O)(=O)c1ccccc1)N1CCCCCCC1,inactive
10,COc1ccc(-n2cnc3cc(NCc4cccs4)ccc32)cc1,"inconclusive: 5.01 µM [inhibitor, full curve, poor fit]"
11,COc1cccc(NC(=O)c2cccc3c(=O)c4c([nH]c23)CCCC4)c1,inactive
12,CCOc1ccc(CNC(=O)c2ccc(Sc3ccc(C)cc3)c(NC(C)=O)c2)cc1,"inconclusive: 10 µM [inhibitor, partial curve, poor fit]"
13,Cc1c(OCC(=O)N2CCN(c3ccccc3)CC2)ccc2c3c(c(=O)oc12)CCCC3,"inconclusive: 10 µM [activator, partial curve, poor fit]"
14,COc1ccc(CN2CC(C(=O)NCCC(C)C)CC2=O)cc1 (centres undefined),"inconclusive: 35.5 µM [inhibitor, single point]"
15,Cc1cc(C(=O)COC(=O)CNC(=O)c2ccc(Cl)c(Cl)c2)c(C)n1Cc1ccco1,"inconclusive: 35.5 µM [inhibitor, single point]"
16,Cc1ccc(NC(=O)Nc2ccc(F)cc2)nc1,"inconclusive: 2.31 µM [activator, partial curve]"
17,Cc1nc2ccccc2n1C1CCN(CC(=O)NCc2ccc(F)cc2)CC1,inactive
18,O=[N+]([O-])c1ccccc1-c1ccc(C(=S)N2CCCC2)o1,inactive
19,Cc1cccc(C(=O)Nc2nnc(S(=O)(=O)N(C)Cc3ccccc3)s2)c1,inactive
20,Cc1cccc(C(=O)N[C@H](C(=O)Nc2cc(S(=O)(=O)N3CCCCC3)ccc2C)C(C)C)c1,"inconclusive: 10 µM [inhibitor, partial curve, poor fit]"
21,O=C(Cc1ccc(-n2cccc2)cc1)NCc1ccccc1Cl,"inconclusive: 20.6 µM [inhibitor, single point]"
22,CCN(CC(=O)N1CCN(C)CC1)S(=O)(=O)c1ccc(Cl)cc1,inactive
23,Cc1onc(-c2ccccc2Cl)c1C(=O)OCC(=O)c1ccc2c(c1)OCCO2,"inconclusive: 18.3 µM [inhibitor, single point]"

row,SMILES,Potency
1,COc1ccc(NS(=O)(=O)c2ccc(Cl)c(N)c2)cc1Br,"inconclusive: 35.5 µM [inhibitor, single point]"
2,Cn1cnnc1SCC(=O)Nc1ccc2c(c1)CCC2,"inconclusive: 3.26 µM [activator, full curve, poor fit]"
3,Cc1ccc2c(c1)N(CC(=O)NC1CCCCCC1)C(=O)c1cccnc1O2,"inconclusive: 35.5 µM [inhibitor, single point]"
4,CC1CCCC(C(=O)OCc2ccccc2)N1 (centres undefined),"inconclusive: 4.61 µM [activator, single point]"
5,Cc1cc(Cl)ccc1OCC(=O)N[C@@H](Cc1ccccc1)c1nc2ccccc2[nH]1,"inconclusive: 10 µM [inhibitor, partial curve, poor fit]"
6,Cc1ccc(SCCNC(=O)c2ccc(C)c(S(=O)(=O)Nc3ccccc3C)c2)cc1,active: 10.3 µM
7,COc1ccc(CCn2c(C)cc3c(c2=O)C(c2ccc4c(c2)OCO4)C(C#N)=C(N)O3)cc1OC (centres undefined),"inconclusive: 35.5 µM [inhibitor, single point]"
8,CCn1cc(C(=O)Nc2ccc(F)c(F)c2)cn1,inactive
9,CCc1ccc(C(=O)NNc2cc(Cl)cc(Cl)c2)cc1,"inconclusive: 8.91 µM [inhibitor, partial curve]"
10,Cn1ccnc1/C(=N\NC(=O)c1ccc(O)cc1)c1cccc([N+](=O)[O-])c1,inactive
11,COc1ccc(S(=O)(=O)N2CCOC23CCN(S(=O)(=O)c2ccc(F)cc2C)CC3)cc1,"inconclusive: 1.41 µM [inhibitor, partial curve, poor fit]"
12,COc1ccc(NC(=O)c2cc(-c3cc(C)c(C)cc3O)n[nH]2)c(OC)c1,inactive
13,COc1ccccc1-c1cc(-c2ccccc2)nc(SC(C(N)=O)c2ccccc2)c1C#N (centres undefined),"inconclusive: 29.1 µM [inhibitor, single point]"
14,Cc1cc(C)c2ccc(C)[n+]([O-])c2c1O,inactive
15,CC(=O)Nc1ccc(/C=C/c2noc(-c3ccccc3O)n2)cc1,"inconclusive: 5.62 µM [activator, single point]"
16,CCN(NC(=O)C(O)(c1ccccc1)c1ccccc1)C(=O)c1ccccc1,inactive
17,CC(OC(=O)Cc1c[nH]c2ccccc12)C(=O)Nc1ccccc1F (centres undefined),inactive
18,CC(C1CC1)N(Cc1ccccc1)C(=S)Nc1cccc(C(F)(F)F)c1 (centres undefined),"inconclusive: 29.1 µM [inhibitor, single point]"
19,Cc1ccc(-c2cc(C(F)F)n3ncc(C(=O)Nc4ccc(S(=O)(=O)Nc5ccccc5C)cc4)c3n2)cc1,inactive
20,CC(=O)N1CCCc2cc(S(=O)(=O)N3CCCC(C)C3)ccc21 (centres undefined),inactive
21,COc1ccc(CCNCc2csc3nc4ccccc4n23)cc1OC,"inconclusive: 12.6 µM [inhibitor, partial curve, poor fit]"
22,CC(=O)Nc1ccc(NC(=O)c2ccc3c(c2)N(Cc2cccc(Cl)c2)C(=O)c2ccccc2S3=O)cc1 (centres undefined),"inconclusive: 35.5 µM [inhibitor, single point]"
23,CC(C)OCCCNc1ncc2c(n1)CC(c1ccc(N(C)C)cc1)CC2=O (centres undefined),"inconclusive: 0.501 µM [inhibitor, partial curve, poor fit]"

# Three entries already listed, arranged by molar mass, low to high.
row,SMILES,Potency
7,CC1(C)SC2c3ccccc3C(=O)N2[C@@H]1C(=O)NC1CCCC1 (some centres undefined),"inconclusive: 20 µM [activator, partial curve, poor fit]"
1,COc1ccc(NS(=O)(=O)c2ccc(Cl)c(N)c2)cc1Br,"inconclusive: 35.5 µM [inhibitor, single point]"
18,CCN(CC)S(=O)(=O)c1cc([N+](=O)[O-])ccc1NNC(=O)Nc1ccc(F)cc1,"inconclusive: 29.1 µM [inhibitor, single point]"
